No constants are given. Whether binding was seen depends on the method and setting. Some entries that bind do so weakly or less than the wild type.

Protein sequences, listed by entry. Tags and fused reporters are not part of them. Residues count along the entry.
UniProt P0AEG4, residues 20-208: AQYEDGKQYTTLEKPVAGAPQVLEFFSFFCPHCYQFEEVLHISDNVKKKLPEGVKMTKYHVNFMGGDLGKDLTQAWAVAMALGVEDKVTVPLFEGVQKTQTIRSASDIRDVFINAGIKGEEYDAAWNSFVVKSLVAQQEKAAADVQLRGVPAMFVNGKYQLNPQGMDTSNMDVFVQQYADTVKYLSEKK

This passage reports binding results from US20220243360A1 (ROCHE SEQUENCING SOLUTIONS, published 2022).

This assay deals with biotin-labeled DsbA (UniProt P0AEG4). Nature of the assay: summary of microarray and Biacore data.

Regarding HNWAAQCLKDQAKL (C-terminal amide), the binding entry is given as “binds”.

Take SIIGMCYKKDPS (C-terminal amide): the binding result is on record as “binds”.

For YVYGMCWKDYTTDK (C-terminal amide), the binding entry is given as “binds”.

HNWAAQCLNPDQAKL (C-terminal amide): the binding entry is “binds”.

On to VILGQCLKQ (C-terminal amide), for which the binding result is reported as “binds”.

In the case of YVYGMCWKDYTDTDK (C-terminal amide), the binding result is “binds”.

For WQYENWAITKWQCVK (C-terminal amide), the binding entry is “binds”.

For DFWHGEQCKVTQFDQ (C-terminal amide), the binding result is listed as “binds”.

For the molecule VIGQCLKN (C-terminal amide) [VIGQCLKN-NH2], the binding entry is “binds”.

For VIVGQCLKK (C-terminal amide), the binding result was “binds”.

DFWHGETCKVTQFDQ (C-terminal amide): the binding result is given as “binds”.

Turning to NDYQYKGQQCLDPKY (C-terminal amide), the binding result is “binds”.
